Source: publication PMC5923120, “Acylhydrazones as Antifungal Agents Targeting the Synthesis of Fungal Sphingolipids” (Antimicrobial Agents and Chemotherapy, 2018)

Tested on: A549
Assay: In vitro toxicity (MTT), A549
Assay type: cell-based, human
Settings: ratio of IC50 against mammalian cell line and MIC80 against C. neoformans
Protocol: The murine macrophage cell line J774 and human cancer cell lines A549 and HepG2 were maintained in DMEM containing 10% fetal bovine serum (FBS) and 1% penicillin-streptomycin. At passage 7, 10^5 cells/well in DMEM containing 10% FBS were transferred into 96-well plates and cultured for 14 h for the cells to adhere to the wells. The compounds were added to the cells at concentrations ranging from 0.03 to 128 μg/ml. The wells without the compound served as controls. […] After 24 or 48 h, the supernatant was removed and 50 μl of 5-mg/ml 3-(4,5-dimethylthiazol-2-yl)-2,5-diphenyltetrazoliumbromide (MTT) solution in phosphate-buffered saline (PBS) was added to each well. The plates were incubated for an additional 4 h. The formazan crystal formed inside the cell was dissolved by adding 50 μl of dimethyl sulfoxide (DMSO). The optical density was measured at 570 nm.

SMILES	SI of A549 or HepG2
Cc1ccccc1C(=O)N/N=C/c1cc(Br)ccc1O [BHBM, (E)-N′-(3-bromo-6-hydroxybenzylidene)-2-methylbenzohydrazide]	32
O=C(N/N=C/c1cc(Br)cc(Br)c1O)c1ccc(Br)cc1 [D13]	> 4,000
